Literature values in patent US20080107740A1, “Pharmaceutical composition comprising salmeterol and budesonide for the treatment of respiratory disorders” (GALEPHAR M/F, priority 2001, published 2008).
At least one compound was matched to its structure with a doubt left.

Test system: patients with mild to moderate asthma
Settings: inhaled, doses < or =800 μg/day, studies of 4 to 24 weeks

Compound: CCCC1O[C@@H]2C[C@H]3[C@@H]4CCC5=CC(=O)C=C[C@]5(C)[C@H]4[C@@H](O)C[C@]3(C)[C@]2(C(=O)CO)O1 (stereo partly shown) [Budesonide]
- efficacy as corticosteroid maintenance treatment: provided effective corticosteroid maintenance treatment
